Results: patent publication US5234907A (Hoffmann-La Roche Inc., priority 1991, dated 1993)

Legend:
[1] = Fmoc solid-phase peptide synthesis; Fmoc-Tm-MBHA resin; DCC or DIC, HOBT; preformed symmetrical anhydrides; conditions: whole synthesis, scale 0.11 mmol
[2] = solid-phase peptide synthesis; conditions: whole synthesis, scale 0.1 mmol

Substance	isolated mass [1]	crude mass [2]	isolated mass [2]
Ac-(SEQ ID NO: 12)-NH2	35.7 mg		
Ac-(SEQ ID NO: 19)-NH2		280 mg	12.4 mg
